# According to PubChem BioAssay AID624291 (National Center for Advancing Translational Sciences (NCATS), 2012):
# In all, about 350,000 compounds went through this assay and about 220 (0.063%) were called active. This list was built around the results that the source calls inconclusive (neither active nor inactive); the mix of calls is not that of the screen. The call rests on the fitted dose curve; in most records, active means well fitted activation curve with a large enough effect; inconclusive means small, poorly fitted or top-dose-only effect; inactive means no such curve, though single readings can be large or run the other way. A potency beside an inconclusive call is a rough fit, not a confirmed value.
# Assay: qHTS for Activators of Integrin-Mediated Alleviation for Muscular Dystrophy; further: nearly all actives have a fitted effect of over 60% in size;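 on activation: 100% = response of the positive control SU9516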
# Settings: alpha7betagal myoblasts, beta-gal FDG fluorescence, 48 h; activation: at 38.3 µM (top of the series)
# Method in brief: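 Alpha7betagal+/- myoblasts (passage 13) were plated 16-24 hr, then exposed to compounds (1:260 dilution of DMSO stock) for 48 hours at 37C. After MPER lysis, β-galactosidase reporter activity was read as FDG fluorescence (ex 480/em 540) after 30 minutes.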
# Potency means the concentration at half of the fitted maximal effect.
SMILES,Potency,activation
Cc1ccc(CNC(=O)C2CCN(S(=O)(=O)N3CC(C)CC(C)C3)CC2)cc1 (centres undefined),"inconclusive: 1.26 µM [activator, partial curve, poor fit]",
O=C(Nc1cccc(-c2nnc(-c3ccco3)o2)c1)C(c1ccccc1)c1ccccc1,"inconclusive: 0.316 µM [activator, full curve, poor fit]",
O=c1c2ccccc2nc(/C=C/c2ccc([N+](=O)[O-])o2)n1CCCO,,inconclusive: -56.5% [activator]
CN1CCCN(C(=O)c2cc3c(s2)CCCC3)CC1,"inconclusive: 2.82 µM [activator, single point]",
Cc1cccc(C)c1NC(=O)COC(=O)c1ccc([N+](=O)[O-])o1,"inconclusive: 14.1 µM [activator, single point]",
COc1ccc(Cl)cc1C(=O)OCC(=O)Nc1cccnc1Cl,"inconclusive: 3.98 µM [activator, single point]",
NC(=O)C1CC(O)CN1c1nc(CN2CCOCC2)nc2scc(-c3ccccc3)c12 (centres undefined),"inconclusive: 5.01 µM [activator, single point]",
COc1ccc(N(CC(=O)NCCOc2ccccc2)S(=O)(=O)c2ccc(C)cc2)cc1,"inconclusive: 22.4 µM [activator, single point]",
O=C(CCc1nnc(CCCCc2ccccc2)o1)NC1CCCC1,"inconclusive: 4.47 µM [activator, single point]",
COc1ccc(/C=C/c2noc(-c3ccccc3OC(C)=O)n2)cc1,"inconclusive: 5.01 µM [activator, single point]",
Cc1cc(=O)oc2c(C)c(OCC(=O)NCc3ccccn3)ccc12,"inconclusive: 5.01 µM [activator, single point]",
Cc1cc(OCC(=O)c2ccc(C(F)(F)F)cc2)n2cnnc2n1,"inconclusive: 31.6 µM [activator, single point]",
CCC(=O)NCCNC(=O)c1c(SC)nsc1SC,,inconclusive: -40.4% [activator]
Cc1cc(NC(=O)c2ccc3c(c2)C(=O)N(Cc2cccnc2)C3=O)no1,"inconclusive: 3.55 µM [activator, single point]",
N#Cc1cc(-c2ccccc2)[nH]c1-c1nccc2ccccc12,inactive,
CCN(CC(=O)NC1CCS(=O)(=O)C1)C(=O)/C=C/c1cccs1 (centres undefined),"inconclusive: 28.2 µM [activator, single point]",
COc1ccc(C(C(=O)NC2CCCCC2)N(C(=O)CCl)c2ccc(Cl)cc2)cc1 (centres undefined),inactive,
CC(C)n1c(Sc2nccn2C)nc2c1c(=O)n(C)c(=O)n2C,"inconclusive: 28.2 µM [activator, single point]",
O=[N+]([O-])c1ccc(-c2cn(-c3ccccc3)c(=S)[nH]2)cc1,inactive,
CCC(C)(C)NC(=O)C(c1ccccc1F)N(Cc1ccco1)C(=O)Cn1nnc2ccccc21 (centres undefined),inactive,
O=S(=O)(c1ccccc1)c1cccc(S(=O)(=O)N2CCCCC2)c1,"inconclusive: 20 µM [activator, single point]",
O=C(Nc1ccccc1)OCCOc1ccc(Br)cc1,inactive,
NC(=S)N/N=C/c1ccc2c(c1)OCCO2,"inconclusive: 5.01 µM [activator, single point]",

SMILES,Potency,activation
O=C(COC(=O)/C=C/c1ccc(OC(F)F)cc1)NC(=O)NCc1ccccc1,"inconclusive: 0.891 µM [activator, full curve]",
CCc1nc2ccc(C(=O)NCCCN3CCN(c4ccc(F)cc4)CC3)cc2nc1CC,"inconclusive: 28.2 µM [activator, single point]",
C(=N\Nc1nc2ccccc2[nH]1)/c1ccc2c(c1)OCO2,inactive,
Cc1ccc(C)c(C(=O)CN2C(=O)NC3(CCC(C)CC3)C2=O)c1 (centres undefined),"inconclusive: 5.01 µM [activator, single point]",
COc1ccc(N2CC(C(=O)NCCc3ccc(Cl)cc3)CC2=O)cc1 (centres undefined),"inconclusive: 2.82 µM [activator, single point]",
O=C(Oc1ccc(/C=N/n2cnnc2)cc1)c1cccc([N+](=O)[O-])c1,inactive,
CN(CC(=O)Nc1ccccc1Cl)CC(=O)Nc1c(F)cccc1F,"inconclusive: 28.2 µM [activator, single point]",
CN(C(=O)c1cccc(OC2CCN(S(=O)(=O)N(C)C)CC2)c1)C1CCOC1 (centres undefined),"inconclusive: 5.01 µM [activator, single point]",
c1ccc2c(C3=NNC(=NC4CCCCC4)SC3)c[nH]c2c1,inactive,
c1cnc(N2CC[N+]3(CCCC3)CC2)nc1,"inconclusive: 14.1 µM [activator, partial curve, poor fit]",
COc1ccc2[nH]c(=O)c(-c3noc(-c4ccccc4)n3)cc2c1,"inconclusive: 2.24 µM [activator, single point]",
O=C(NCc1cccnc1)c1cccnc1-c1nc2ccccc2s1,"inconclusive: 3.16 µM [activator, single point]",
COc1cc2ccccc2cc1C(=O)Nc1cccnc1,"inconclusive: 1 µM [activator, full curve, poor fit]",
Cc1ccc(C(=O)CC(=O)c2cccc(F)c2)c(O)c1,inactive,
Cc1cc(/C=N/Nc2ccc([N+](=O)[O-])cn2)c(C)n1-c1ccc(C(=O)O)cc1,"inconclusive: 28.2 µM [activator, single point]",
Cc1ccc(S(=O)(=O)NCC(c2cccnc2)N2CCN(Cc3ccccc3)CC2)cc1 (centres undefined),"inconclusive: 3.16 µM [activator, single point]",
CN(C)CCCN(C(=O)c1ccc(S(=O)(=O)N(C)Cc2ccccc2)cc1)c1nc2cc3c(cc2s1)OCO3,inactive,
Nc1nc(-c2ccccc2)cn1/N=C/c1ccccc1,inactive,
Cc1ccccc1C(=O)Nc1ccc(N2CCCC2)cc1,"inconclusive: 5.62 µM [activator, partial curve, poor fit]",
Cc1ccc(CNC(=O)c2ccc[nH]2)cc1,"inconclusive: 28.2 µM [activator, single point]",
Cc1ccc(N(CC(=O)Nc2c(C)n(C)n(-c3ccccc3)c2=O)S(C)(=O)=O)c(C)c1,"inconclusive: 2.82 µM [activator, full curve, poor fit]",
Cc1c(CC(=O)O)c(=O)oc2c(C)c(OCc3ccccc3)ccc12,"inconclusive: 11.2 µM [activator, single point]",
CCC(=O)N1CCN(c2nnc(-c3ccccc3)c3ccccc23)CC1,"inconclusive: 3.16 µM [activator, partial curve, poor fit]",

SMILES,Potency,activation
COc1cccc(C(c2nnnn2Cc2ccccc2)N2CCN(C3CCCC3)CC2)c1OC (centres undefined),inactive,
O=C(O)CCCC(=O)Nc1ccccc1C(=O)N1CCOCC1,"inconclusive: 3.98 µM [activator, single point]",
CC(=O)c1sc(NC(=O)c2cccc(C)c2)nc1C,"inconclusive: 5.01 µM [activator, single point]",
O=C(Cc1ccc(S(=O)(=O)N2CCOCC2)s1)Nc1cc(Cl)ccc1Cl,inactive,
Cc1cccc(-c2nc3c(c(SCC(=O)N4CCCC4)n2)COC(C)(C)C3)c1,"inconclusive: 14.1 µM [activator, partial curve, poor fit]",
Cc1nc2c(ccc3nc(NC(=O)c4ccc(S(=O)(=O)N(C)C)cc4)sc32)s1,"inconclusive: 28.2 µM [activator, single point]",
NC(CSCc1ccccc1Cl)C(=O)O (centres undefined),"inconclusive: 2.24 µM [activator, partial curve, poor fit]",
CCNC(=O)NC(=O)COC(=O)CCCc1nc2ccccc2s1,inactive,
O=C(COC(=O)CCNS(=O)(=O)c1ccccc1)Nc1ccc(OC(F)F)cc1,"inconclusive: 28.2 µM [activator, single point]",
Cc1ccc(C(=O)NNC2=NC(C)(C)Cc3ccccc32)cc1,"inconclusive: 3.16 µM [activator, single point]",
Cc1ccccc1-c1nnc(-c2ccc(Br)cc2)o1,"inconclusive: 5.01 µM [activator, single point]",
C=CCN(Cc1nc(-c2cc(OC)c3c(c2)OCO3)oc1C)C1CCS(=O)(=O)C1 (centres undefined),"inconclusive: 2.82 µM [activator, single point]",
CC(=O)c1c(C)[nH]c(C(=O)COc2ccc3ccc(=O)oc3c2)c1C,inactive,
O=C(NCC1CCCO1)c1ccc2c(c1)N(Cc1ccc(Cl)cc1)CCS2 (centres undefined),inactive,
O=C(N/N=C/C=C\c1cccc([N+](=O)[O-])c1)c1cccnc1,inactive,
CC(=O)c1cccc(N2C(=O)CC(N3CCN(S(=O)(=O)c4ccc(Cl)cc4)CC3)C2=O)c1 (centres undefined),"inconclusive: 5.01 µM [activator, single point]",
COc1ccc(/C=N/NC(=O)c2cc3c(ccc4ccccc43)o2)cc1OC,inactive,
CN(C)S(=O)(=O)c1cccc(NC(=O)C2Cc3ccccc3CN2C(=O)c2ccccc2)c1 (centres undefined),"inconclusive: 17.8 µM [activator, single point]",
OC(COc1ccc(Cl)cc1Cl)CN1CCc2ccccc2C1 (centres undefined),inactive,
Cc1nn(CC(=O)N2CCN(c3cccc(C(F)(F)F)c3)CC2)c(=O)c2cccn12,"inconclusive: 12.6 µM [activator, single point]",
Cc1ccc(NC(=O)Cn2nnc(C(=O)NCc3cccs3)c2N)cc1Cl,"inconclusive: 7.08 µM [activator, single point]",
CCOc1ccccc1NC(=O)Nc1ccncc1,,inconclusive: 45.3% [activator]
C=CCn1cc(C(=O)N2CCN(CC)CC2)c(=O)c2cc(S(=O)(=O)N(CC)CC)ccc21,"inconclusive: 5.01 µM [activator, single point]",

# Copied from the list:
# Value of N#Cc1cc(-c2ccccc2)[nH]c1-c1nccc2ccccc12 under Potency: inactive
# Value of O=C(NCC1CCCO1)c1ccc2c(c1)N(Cc1ccc(Cl)cc1)CCS2 (centres undefined) under Potency: inactive
# Value of Cc1cc(OCC(=O)c2ccc(C(F)(F)F)cc2)n2cnnc2n1 under Potency: inconclusive: 31.6 µM [activator, single point]
# Value of O=C(COC(=O)/C=C/c1ccc(OC(F)F)cc1)NC(=O)NCc1ccccc1 under Potency: inconclusive: 0.891 µM [activator, full curve]
# Value of COc1ccc2[nH]c(=O)c(-c3noc(-c4ccccc4)n3)cc2c1 under Potency: inconclusive: 2.24 µM [activator, single point]
